{"sequences": {"note": "Chains of the proteins cited; added tags and fusions are not shown.", "UniProt Q96CV9": "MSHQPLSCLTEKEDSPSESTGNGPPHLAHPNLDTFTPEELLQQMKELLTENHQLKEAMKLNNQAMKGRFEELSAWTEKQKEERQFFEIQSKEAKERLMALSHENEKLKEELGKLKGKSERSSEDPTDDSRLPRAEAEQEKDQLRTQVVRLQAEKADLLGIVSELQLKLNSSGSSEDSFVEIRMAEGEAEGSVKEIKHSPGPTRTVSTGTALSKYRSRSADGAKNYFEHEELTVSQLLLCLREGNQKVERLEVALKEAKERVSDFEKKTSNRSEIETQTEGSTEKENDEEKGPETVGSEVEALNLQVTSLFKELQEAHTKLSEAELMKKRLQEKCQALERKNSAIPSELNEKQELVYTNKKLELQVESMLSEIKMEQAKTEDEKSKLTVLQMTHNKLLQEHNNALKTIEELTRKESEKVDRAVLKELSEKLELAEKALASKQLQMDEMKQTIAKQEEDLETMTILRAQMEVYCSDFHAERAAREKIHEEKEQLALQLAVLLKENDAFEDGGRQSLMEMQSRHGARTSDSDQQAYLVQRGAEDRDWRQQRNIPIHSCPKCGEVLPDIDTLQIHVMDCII", "UniProt Q13546": "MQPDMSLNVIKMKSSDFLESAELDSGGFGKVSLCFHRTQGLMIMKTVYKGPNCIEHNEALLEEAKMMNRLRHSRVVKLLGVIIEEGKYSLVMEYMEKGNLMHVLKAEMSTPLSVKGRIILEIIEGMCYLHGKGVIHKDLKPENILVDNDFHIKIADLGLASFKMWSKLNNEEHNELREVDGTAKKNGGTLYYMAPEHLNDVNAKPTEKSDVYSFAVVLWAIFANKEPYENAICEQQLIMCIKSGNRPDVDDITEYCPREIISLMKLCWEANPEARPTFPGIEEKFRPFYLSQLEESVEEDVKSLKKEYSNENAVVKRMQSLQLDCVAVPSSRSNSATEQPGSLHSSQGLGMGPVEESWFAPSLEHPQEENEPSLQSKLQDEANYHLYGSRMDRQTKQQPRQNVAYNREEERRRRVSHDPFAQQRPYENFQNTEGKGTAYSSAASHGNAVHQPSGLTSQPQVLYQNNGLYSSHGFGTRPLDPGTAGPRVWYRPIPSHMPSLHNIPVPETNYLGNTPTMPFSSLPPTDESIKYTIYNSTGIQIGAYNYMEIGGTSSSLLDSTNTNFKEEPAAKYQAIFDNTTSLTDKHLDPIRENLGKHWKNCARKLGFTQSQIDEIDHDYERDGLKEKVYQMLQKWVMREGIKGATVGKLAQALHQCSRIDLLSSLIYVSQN"}, "source": "paper PMC3366936", "biological_target": "HA-tagged optineurin expressed in KB cells (UniProt Q96CV9)", "assay": "co-IP; KB and KB/14.7K cells transfected with HA-tagged optineurin, 50 ng/mL TNF for 10 min (or left untreated); lysates on anti-HA agarose at 4°C overnight; Western blot", "note": "These are yes or no findings as the source states them, for the method shown. Binding seen in cells or lysates may run through a third protein. Some binding calls cover weakened binding; strength is not graded here."}
{"substance": "RIP1 (from UniProt Q13546 1-671)", "values": [{"measurement": "binding", "value": "binds"}]}
